This is an account of results in paper PMC7819943, “Rice protein-binding microarrays: a tool to detect cis-acting elements near promoter regions in rice”.

The list shows a part of the results.

The target in the experiment is T1, OsSMF1 (Oryza sativa, UniProt Q6ZLB0 1-436).
T1 sequence: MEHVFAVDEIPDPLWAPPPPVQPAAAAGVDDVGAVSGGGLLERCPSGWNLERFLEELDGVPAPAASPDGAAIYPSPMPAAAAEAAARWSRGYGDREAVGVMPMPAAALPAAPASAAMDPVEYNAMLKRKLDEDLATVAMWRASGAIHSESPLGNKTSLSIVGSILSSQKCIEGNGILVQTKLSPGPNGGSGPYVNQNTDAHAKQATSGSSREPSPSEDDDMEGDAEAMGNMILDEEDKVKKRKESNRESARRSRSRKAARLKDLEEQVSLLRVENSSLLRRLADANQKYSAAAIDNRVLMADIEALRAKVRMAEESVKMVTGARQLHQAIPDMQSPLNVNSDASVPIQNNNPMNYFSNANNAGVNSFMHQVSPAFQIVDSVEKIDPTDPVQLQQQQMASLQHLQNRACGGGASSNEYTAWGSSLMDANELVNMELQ
The experiment can be described thus: protein-binding microarray (RPBM); PBS, 2% BSA, 51.3 ng/ul salmon testes DNA, 50 uM zinc acetate, 200 nM TF, 25 C, 1 h; high values mean tight binding. Conditions: protein: recombinant; tags: N-terminal polyhistidine and DsRed monomer fusion (pET32a); chain copies: 2; label: CyDye5-dUTP incorporated in the synthesized complementary strand; 3' TTTTT single-stranded linker to array surface; dsDNA, one strand shown. Put shortly:
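Transcription factors were each fused at the N-terminus to a polyhistidine tag plus DsRed and expressed in E. coli BL21-CodonPlus before Ni–NTA purification. Binding to a double-stranded custom Agilent array was carried out with 200 nM protein at 25 °C for 1 h in PBS, 2% BSA, salmon testes DNA and 50 µM zinc acetate. The binding signal is per-feature fluorescence intensity, in arbitrary units, on an Axon 4000B scanner.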
As for “CTCCATGCGCTCACGTTCCATCGCGTGGTCCACGCCCTTCCGGAGTCACCTAGTGCAG”, the binding signal is 3980 fluorescence intensity (a.u.).
Take “GAGTAATTGTTTTACTTTGTGTAACGTCATGGGACCTAGACGGAGTCACCTAGTGCAG”: the binding signal is 3330 fluorescence intensity (a.u.).
Under “GTGGGTGGAGGAAGCGGATAGGGAGAGGGGTGTGGGGCGGCGGAGTCACCTAGTGCAG” stands 5720 fluorescence intensity (a.u.); under “ACCAAACAGCTCCTAAGCTTATATAATGGTGTACTACAAGCGGAGTCACCTAGTGCAG”, 3310 fluorescence intensity (a.u.); under “GATCCGCCCCAGGTAGTACTGTAGTAGTGTGCATAGGGCACGGAGTCACCTAGTGCAG”, 3260 fluorescence intensity (a.u.).
Consider “GCCACGCCTCCTATATCCACGCTGCCCAGCGGCGCCCACCCGGAGTCACCTAGTGCAG”, for which the binding signal was 3190 fluorescence intensity (a.u.).
The same measure for “AAACGCCGCGCTGCGCGGCCTACGAGGGTGTCCGTGGCGCCGGAGTCACCTAGTGCAG”: 3360 fluorescence intensity (a.u.).
The same measure for “GGTGGGATCCTCTGCGGCCTCGTATTTCTATCTGCTTAACCGGAGTCACCTAGTGCAG”: 3230 fluorescence intensity (a.u.); for “GCGCAGATGTGTGCGTGGCATGGAATCCCCGATGTGGATGCGGAGTCACCTAGTGCAG”: 4000 fluorescence intensity (a.u.).
Turning to “TGTCCACCACCCCGAAGCGTGACGTGACACGCACCATCCACGGAGTCACCTAGTGCAG”, the binding signal is 3700 fluorescence intensity (a.u.).
As to “AGAAGGGGAAAAGAAGGATAGAGGGACTGACACGTGGGTCCGGAGTCACCTAGTGCAG”, the binding signal is 8780 fluorescence intensity (a.u.).
On to “TTCACCTTGCTCCTCTCTCTCTCTCTCTCTCCTTAATTCTCGGAGTCACCTAGTGCAG”, for which the binding signal was 5280 fluorescence intensity (a.u.).
As for “ATCCGTAACTTTGGTCACATTGCCACGTAAGATAACATTTCGGAGTCACCTAGTGCAG”, the binding signal was 16500 fluorescence intensity (a.u.).
Turning to “CTACACCGCCACCTCCCCACGCTGCTCTGCTTCTCTTCTTCGGAGTCACCTAGTGCAG”, the binding signal is 3880 fluorescence intensity (a.u.).
Under “GAGGCGGCGGGAGGGAAGTCGCACGTCGTCGTCGGGGTCGCGGAGTCACCTAGTGCAG” stands 3700 fluorescence intensity (a.u.); under “GGTTTGTTTGTCGTTCATGTGACGAGCGCATCCGTTTTCCCGGAGTCACCTAGTGCAG”, 3170 fluorescence intensity (a.u.).
Under “CTACTGCTGTTGTGAAATTGGCAATAGTTCAATCACACTACGGAGTCACCTAGTGCAG” stands 3480 fluorescence intensity (a.u.); under “TTCAGAAGCTGACATAAGTTTGGGGACACATAGTCCTCGGCGGAGTCACCTAGTGCAG”, 3820 fluorescence intensity (a.u.); under “TGGTCGACGTGTTTGGCCAAGAGCGCTACCCTGCACTCCCCGGAGTCACCTAGTGCAG”, 3490 fluorescence intensity (a.u.).
Under “CTTACTCTCCCATTGACTTTCAATCCCAATGTAACCAGCTCGGAGTCACCTAGTGCAG” stands 3180 fluorescence intensity (a.u.); under “TGTAAGCTTATGTGTCATCTTTCTTTGTTTGTGAAGAACCCGGAGTCACCTAGTGCAG”, 7880 fluorescence intensity (a.u.); under “AATGCTCTCTTACGGTGGATGACTTGGATGGGCTGATCAACGGAGTCACCTAGTGCAG”, 3260 fluorescence intensity (a.u.).
For “GTTGGGCACATACGTGGCCACCGATGGTTGAGCCGTCGAACGGAGTCACCTAGTGCAG”, the binding signal is 3910 fluorescence intensity (a.u.).
Under “ATGTTGGGCCAGGCTCGAGCTCCTCCTCCTCCGCGTCGTCCGGAGTCACCTAGTGCAG” stands 23500 fluorescence intensity (a.u.); under “CTCTATGGCCGCAACCCATCGCCGCCATAGACGTACGGACCGGAGTCACCTAGTGCAG”, 6290 fluorescence intensity (a.u.).
Under “AGCCACATTCCTCAAATCATGGTTAGAACCAAAACAACCACGGAGTCACCTAGTGCAG” stands 5700 fluorescence intensity (a.u.); under “AAAATCGACATATCGCGCATGATGCAACCGTGTCTCACTGCGGAGTCACCTAGTGCAG”, 3500 fluorescence intensity (a.u.).
On to “TCCAGTTTGAGAGGAGAATCGATGTGGCAAATACGCGGAACGGAGTCACCTAGTGCAG”, for which the binding signal was 5120 fluorescence intensity (a.u.).
“TGGGTGGTGGTGGTGGTTCATCTCGCCGCGGGCGCGCACACGGAGTCACCTAGTGCAG”: the binding signal was 3210 fluorescence intensity (a.u.).
Regarding “TAGGCATAGGCCATAGATCCTAGTGCCAACACGACAGGCACGGAGTCACCTAGTGCAG”, the binding signal is 4820 fluorescence intensity (a.u.).
With “CCAGTAATCCTCCTCCTGCTGCCTCAGCTCCTCTTCTGTACGGAGTCACCTAGTGCAG”, the binding signal was 50800 fluorescence intensity (a.u.).
Regarding “TGGTGTGCGTGAGTGTGCAACTCTCAATATTTGTTGCCCGCGGAGTCACCTAGTGCAG”, the binding signal was 3820 fluorescence intensity (a.u.).
Turning to “CCTCGCGCGGCGCGCAACGCACACGCTTCCCCTTCATCTCCGGAGTCACCTAGTGCAG”, the binding signal was 24400 fluorescence intensity (a.u.).
Consider “ATAAATAGCTAGGGTTTTACGCCACGGCGCACGCCTCCACCGGAGTCACCTAGTGCAG”, for which the binding signal is 3600 fluorescence intensity (a.u.).
Under “TATGTATTATGTTTTAGGTGGAAGGTCTGAAAATGGGCCCCGGAGTCACCTAGTGCAG” stands 3690 fluorescence intensity (a.u.).
On to “TCCCCTGCTCCCGCGTCATCGTCGCCGCCGCCGCCGCGTCCGGAGTCACCTAGTGCAG”, for which the binding signal was 7100 fluorescence intensity (a.u.).
Consider “TATCAAATTATAGCGCAATTAGGCTCAAAAGATTCAGATTCGGAGTCACCTAGTGCAG”, for which the binding signal is 26600 fluorescence intensity (a.u.).
For “GGTTCCTGTTTTAGCATTACGATATTTGGGTTGGTTTACTCGGAGTCACCTAGTGCAG”, the binding signal was 3270 fluorescence intensity (a.u.).
“CTCGCATCACACTAGCTTGACACGCCCTCAATTTCTCACACGGAGTCACCTAGTGCAG”: the binding signal is 3450 fluorescence intensity (a.u.).
Regarding “AGATACTTTGAACTTCAAGATGTCGTCGTCAGTTTCCGTGCGGAGTCACCTAGTGCAG”, the binding signal is 3630 fluorescence intensity (a.u.).
On to “ATCAAGATGTACACACTCCATGATTCATCAACTTGGTACCCGGAGTCACCTAGTGCAG”, for which the binding signal was 5620 fluorescence intensity (a.u.).
“ATATGTTCGGTATGATCAAACGTCAGCTAAAATGTTTGTTCGGAGTCACCTAGTGCAG”: the binding signal was 3150 fluorescence intensity (a.u.).
